Results are given in words; binding and its absence hold for the method and conditions named. For part of these data: Binding seen in cells or lysates may run through a third protein. Some entries that bind do so weakly or less than the wild type.

The target in assay [1] is T1, Lgl-1 (mouse (endogenous in mouse brain)) (UniProt Q80Y17).
T1 sequence: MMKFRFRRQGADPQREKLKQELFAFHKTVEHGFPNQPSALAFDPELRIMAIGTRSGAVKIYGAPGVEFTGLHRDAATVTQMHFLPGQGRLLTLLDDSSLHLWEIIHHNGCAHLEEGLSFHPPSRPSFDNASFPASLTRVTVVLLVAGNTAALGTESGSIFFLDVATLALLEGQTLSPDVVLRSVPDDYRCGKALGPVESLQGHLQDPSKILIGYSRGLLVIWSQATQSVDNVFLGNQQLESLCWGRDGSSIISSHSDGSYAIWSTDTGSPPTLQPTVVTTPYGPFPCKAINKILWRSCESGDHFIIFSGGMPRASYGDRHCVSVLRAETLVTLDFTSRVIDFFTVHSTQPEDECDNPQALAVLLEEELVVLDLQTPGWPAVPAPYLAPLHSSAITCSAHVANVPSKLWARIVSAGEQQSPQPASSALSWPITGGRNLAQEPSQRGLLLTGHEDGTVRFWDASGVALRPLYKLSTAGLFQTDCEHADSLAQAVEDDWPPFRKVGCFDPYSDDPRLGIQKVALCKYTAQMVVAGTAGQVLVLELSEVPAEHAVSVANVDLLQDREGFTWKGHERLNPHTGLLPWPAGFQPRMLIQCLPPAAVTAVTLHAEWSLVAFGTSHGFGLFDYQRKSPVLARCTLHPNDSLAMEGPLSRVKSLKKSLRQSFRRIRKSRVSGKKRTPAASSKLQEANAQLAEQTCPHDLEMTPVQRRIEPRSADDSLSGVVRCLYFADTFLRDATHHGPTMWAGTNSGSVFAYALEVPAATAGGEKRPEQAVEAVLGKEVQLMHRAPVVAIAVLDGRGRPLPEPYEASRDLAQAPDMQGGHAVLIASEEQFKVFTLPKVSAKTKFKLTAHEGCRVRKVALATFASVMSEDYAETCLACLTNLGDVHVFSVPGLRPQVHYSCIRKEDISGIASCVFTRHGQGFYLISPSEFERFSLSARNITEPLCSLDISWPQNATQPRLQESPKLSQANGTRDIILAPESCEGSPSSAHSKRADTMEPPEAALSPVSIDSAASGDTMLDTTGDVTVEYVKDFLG
Nature of the assay: SEC; mouse brain cortex lysates (PBS, 0.1% triton X-100), 250 µg protein, superose 6 on a SMART system, 40 fractions analysed by Western blot; control and aPKCλ S1-cko mice. A general note: SEC sorts molecules by how far they enter the pores of the column.

In assay [2] the target is T2, atypical protein kinase C lambda (aPKCλ) (mouse (endogenous in mouse brain)) (UniProt Q62074).
T2 sequence: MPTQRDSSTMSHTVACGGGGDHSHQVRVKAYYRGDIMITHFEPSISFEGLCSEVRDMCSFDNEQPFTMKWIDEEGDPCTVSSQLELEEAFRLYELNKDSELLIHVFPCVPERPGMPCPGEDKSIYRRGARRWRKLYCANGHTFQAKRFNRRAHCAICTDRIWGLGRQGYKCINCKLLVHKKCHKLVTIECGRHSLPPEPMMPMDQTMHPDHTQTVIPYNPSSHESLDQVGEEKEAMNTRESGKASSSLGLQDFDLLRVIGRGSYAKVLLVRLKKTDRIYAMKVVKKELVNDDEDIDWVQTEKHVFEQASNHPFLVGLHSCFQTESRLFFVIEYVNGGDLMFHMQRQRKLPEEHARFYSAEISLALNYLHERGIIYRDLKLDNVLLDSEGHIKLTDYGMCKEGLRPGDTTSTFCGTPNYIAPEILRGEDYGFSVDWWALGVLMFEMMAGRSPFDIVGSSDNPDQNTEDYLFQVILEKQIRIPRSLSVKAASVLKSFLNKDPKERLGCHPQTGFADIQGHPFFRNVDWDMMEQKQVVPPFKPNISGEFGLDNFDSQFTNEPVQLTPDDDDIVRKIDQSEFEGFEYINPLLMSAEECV
The description is as above.

Assay [3] deals with T1, Lgl-1 (mouse (endogenous in mouse brain)). Nature of the assay: co-IP; mouse cerebrum lysates (20 mM Hepes pH 7.2, 150 mM NaCl, 0.5% triton X-100, 10% glycerol), 2 mg protein, anti-Lgl-1 antisera (C-2) on protein A sepharose; Western blot for Lgl-1 and aPKCλ; control mice and aPKCλ S1-cko or C2-cko mice. In general terms: Immunoblotting shows a protein as a band on a membrane.

B1: atypical protein kinase C lambda (aPKCλ) (enzyme, UniProt Q62074 1-595)
chain: T2 sequence
B1: the binding entry was “binds” in assay [1], “no binding” in assay [2] and “binds” in assay [3].

For the origin of these results see article PMC3877147.
